Reference: the supplement of paper PMC7661543
Differences between knockout arms are mostly noise.

System: BT-20
Test: relative cell number vs DMSO control (72 h) (% of DMSO); higher = less growth inhibition (more cells)
Method: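 QMAP-Seq: a pool of 5 breast cancer cell lines (ZR-75-1, SKBR3, HCC-38, MDA-MB-231, BT-20), each carrying 12 doxycycline-inducible Cas9 sgRNA perturbations (11 knockouts plus non-targeting sgNT), was treated with compounds for 72 h at four 10-fold doses (10 nM-10 uM or 1 nM-1 uM range). Barcodes were amplified and sequenced, and cell number was interpolated from 293T spike-in standard curves. The result is expressed as % of the median of DMSO wells. Two biological replicates.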

Nc1ncn([C@H]2C[C@H](O)[C@@H](CO)O2)c(=O)n1 [Decitabine]
Settings	relative cell number
sgRNA knockout: sgATF3, 10 nM	92.6
sgRNA knockout: sgATF3, 100 nM	96.4
sgRNA knockout: sgATF3, 1000 nM	73.14
sgRNA knockout: sgATF3, 10000 nM	41.2
sgRNA knockout: sgATF4, 10 nM	98.3
sgRNA knockout: sgATF4, 100 nM	87
sgRNA knockout: sgATF4, 1000 nM	75.9
sgRNA knockout: sgATF4, 10000 nM	47.1
sgRNA knockout: sgATF6, 10 nM	96
sgRNA knockout: sgATF6, 100 nM	86.4
sgRNA knockout: sgATF6, 1000 nM	82.2
sgRNA knockout: sgATF6, 10000 nM	44.7
sgRNA knockout: sgATG7, 10 nM	96.8
sgRNA knockout: sgATG7, 100 nM	91.6
sgRNA knockout: sgATG7, 1000 nM	81.7
sgRNA knockout: sgATG7, 10000 nM	54.4
sgRNA knockout: sgERN1, 10 nM	110
sgRNA knockout: sgERN1, 100 nM	87.4
sgRNA knockout: sgERN1, 1000 nM	76.9
sgRNA knockout: sgERN1, 10000 nM	53.9
sgRNA knockout: sgHSF1, 10 nM	115
sgRNA knockout: sgHSF1, 100 nM	98.4
sgRNA knockout: sgHSF1, 1000 nM	73
sgRNA knockout: sgHSF1, 10000 nM	51.1
sgRNA knockout: sgHSF2, 10 nM	96
sgRNA knockout: sgHSF2, 100 nM	80.6
sgRNA knockout: sgHSF2, 1000 nM	65.2
sgRNA knockout: sgHSF2, 10000 nM	46.8
sgRNA knockout: sgKEAP1, 10 nM	113
sgRNA knockout: sgKEAP1, 100 nM	87.2
sgRNA knockout: sgKEAP1, 1000 nM	73.7
sgRNA knockout: sgKEAP1, 10000 nM	48.2
sgRNA knockout: sgNFE2L2, 10 nM	108
sgRNA knockout: sgNFE2L2, 100 nM	93.2
sgRNA knockout: sgNFE2L2, 1000 nM	72.3
sgRNA knockout: sgNFE2L2, 10000 nM	48.7
sgRNA knockout: sgSLC35F2, 10 nM	93
sgRNA knockout: sgSLC35F2, 100 nM	84
sgRNA knockout: sgSLC35F2, 1000 nM	86.4
sgRNA knockout: sgSLC35F2, 10000 nM	45.9
sgRNA knockout: sgXBP1, 10 nM	108
sgRNA knockout: sgXBP1, 100 nM	96.9
sgRNA knockout: sgXBP1, 1000 nM	66.8
sgRNA knockout: sgXBP1, 10000 nM	46.5

COc1cccc2c1C(=O)c1c(O)c3c(c(O)c1C2=O)C[C@@](O)(C(=O)CO)C[C@@H]3O[C@H]1C[C@H](N)[C@H](O)[C@H](C)O1 [Doxorubicin]
Settings	relative cell number
sgRNA knockout: sgATF3, 10 nM	98.5
sgRNA knockout: sgATF3, 100 nM	50.05
sgRNA knockout: sgATF3, 1000 nM	30.6
sgRNA knockout: sgATF3, 10000 nM	19.4
sgRNA knockout: sgATF4, 10 nM	86.1
sgRNA knockout: sgATF4, 100 nM	59.4
sgRNA knockout: sgATF4, 1000 nM	27.7
sgRNA knockout: sgATF4, 10000 nM	18.2
sgRNA knockout: sgATF6, 10 nM	86.8
sgRNA knockout: sgATF6, 100 nM	57.7
sgRNA knockout: sgATF6, 1000 nM	32.9
sgRNA knockout: sgATF6, 10000 nM	20.7
sgRNA knockout: sgATG7, 10 nM	84.6
sgRNA knockout: sgATG7, 100 nM	62
sgRNA knockout: sgATG7, 1000 nM	31.9
sgRNA knockout: sgATG7, 10000 nM	21.1
sgRNA knockout: sgERN1, 10 nM	84
sgRNA knockout: sgERN1, 100 nM	50.1
sgRNA knockout: sgERN1, 1000 nM	31.6
sgRNA knockout: sgERN1, 10000 nM	15.2
sgRNA knockout: sgHSF1, 10 nM	90.1
sgRNA knockout: sgHSF1, 100 nM	44.1
sgRNA knockout: sgHSF1, 1000 nM	27.6
sgRNA knockout: sgHSF1, 10000 nM	21.9
sgRNA knockout: sgHSF2, 10 nM	82.2
sgRNA knockout: sgHSF2, 100 nM	47.1
sgRNA knockout: sgHSF2, 1000 nM	33.1
sgRNA knockout: sgHSF2, 10000 nM	18
sgRNA knockout: sgKEAP1, 10 nM	88.8
sgRNA knockout: sgKEAP1, 100 nM	56.1
sgRNA knockout: sgKEAP1, 1000 nM	26.9
sgRNA knockout: sgKEAP1, 10000 nM	20.9
sgRNA knockout: sgNFE2L2, 10 nM	84
sgRNA knockout: sgNFE2L2, 100 nM	47.48
sgRNA knockout: sgNFE2L2, 1000 nM	27.4
sgRNA knockout: sgNFE2L2, 10000 nM	21.4
sgRNA knockout: sgSLC35F2, 10 nM	91.8
sgRNA knockout: sgSLC35F2, 100 nM	51.5
sgRNA knockout: sgSLC35F2, 1000 nM	34.9
sgRNA knockout: sgSLC35F2, 10000 nM	19.89
sgRNA knockout: sgXBP1, 10 nM	80.8
sgRNA knockout: sgXBP1, 100 nM	52.3
sgRNA knockout: sgXBP1, 1000 nM	29.2
sgRNA knockout: sgXBP1, 10000 nM	23.9

Nc1ccccc1NC(=O)c1ccc(CNC(=O)OCc2cccnc2)cc1 [Entinostat]
Settings	relative cell number
sgRNA knockout: sgATF3, 10 nM	87.8
sgRNA knockout: sgATF3, 100 nM	99.4
sgRNA knockout: sgATF3, 1000 nM	46.5
sgRNA knockout: sgATF3, 10000 nM	17.5
sgRNA knockout: sgATF4, 10 nM	98.4
sgRNA knockout: sgATF4, 100 nM	98.3
sgRNA knockout: sgATF4, 1000 nM	48.4
sgRNA knockout: sgATF4, 10000 nM	14.4
sgRNA knockout: sgATF6, 10 nM	103
sgRNA knockout: sgATF6, 100 nM	106
sgRNA knockout: sgATF6, 1000 nM	47
sgRNA knockout: sgATF6, 10000 nM	11.7
sgRNA knockout: sgATG7, 10 nM	94.1
sgRNA knockout: sgATG7, 100 nM	109.2
sgRNA knockout: sgATG7, 1000 nM	46.1
sgRNA knockout: sgATG7, 10000 nM	16.2
sgRNA knockout: sgERN1, 10 nM	102
sgRNA knockout: sgERN1, 100 nM	106
sgRNA knockout: sgERN1, 1000 nM	53.7
sgRNA knockout: sgERN1, 10000 nM	17.7
sgRNA knockout: sgHSF1, 10 nM	114
sgRNA knockout: sgHSF1, 100 nM	104
sgRNA knockout: sgHSF1, 1000 nM	52.7
sgRNA knockout: sgHSF1, 10000 nM	13.3
sgRNA knockout: sgHSF2, 10 nM	89.7
sgRNA knockout: sgHSF2, 100 nM	124
sgRNA knockout: sgHSF2, 1000 nM	42.7
sgRNA knockout: sgHSF2, 10000 nM	17.1
sgRNA knockout: sgKEAP1, 10 nM	85.9
sgRNA knockout: sgKEAP1, 100 nM	99.2
sgRNA knockout: sgKEAP1, 1000 nM	57.5
sgRNA knockout: sgKEAP1, 10000 nM	17.9
sgRNA knockout: sgNFE2L2, 10 nM	100
sgRNA knockout: sgNFE2L2, 100 nM	108
sgRNA knockout: sgNFE2L2, 1000 nM	41.8
sgRNA knockout: sgNFE2L2, 10000 nM	15.5
sgRNA knockout: sgSLC35F2, 10 nM	80.9
sgRNA knockout: sgSLC35F2, 100 nM	115
sgRNA knockout: sgSLC35F2, 1000 nM	37.78
sgRNA knockout: sgSLC35F2, 10000 nM	16.7
sgRNA knockout: sgXBP1, 10 nM	102
sgRNA knockout: sgXBP1, 100 nM	113
sgRNA knockout: sgXBP1, 1000 nM	53.4
sgRNA knockout: sgXBP1, 10000 nM	19.4
